# In PubChem BioAssay AID212 (DTP/NCI, 2004):
# The list shows only some results of the screen, not a fair sample: it gathers some chemical classes. Not every dose and run of a compound is shown. T/C gives the treated animals as a percentage of the vehicle group. Some entries show no survivor count and are marked so; the dose need not have been tolerated. Schedule codes are those of the source, taken here to give the interval after Q, in days (D) or hours (H), and the number of doses after X.
# Test system: BDF1 mice, colon carcinoma 38 sc, T/C %
# Assay: NCI In Vivo Anticancer Drug Screen. Data for tumor model Colon Carcinoma 38 (subcutaneous) in B6D2F1 (BDF1) mice
# Conditions: T/C endpoint: median tumor weight (est.), schedule: Q07DX003 (ip), vehicle: saline, evaluation day not shown, higher T/C = larger tumour
# Method: The antitumor activity of compounds was measured in mice bearing transplantable tumors. Survival or tumor size were measured and the results are expressed as the measurement made in the treated group (T) divided by the measurement made in the vehicle treated control group (C). The tumor model used in this assay is Colon Carcinoma 38 (subcutaneous) in B6D2F1 (BDF1) mice
compound,measurement,setting,value
CN(CCCl)CCCl,T/C,dose: 0.06 mg/kg/injection,70 % of control [survivor count not shown]
same,T/C,dose: 0.12 mg/kg/injection,112 % of control [survivor count not shown]
same,T/C,dose: 0.25 mg/kg/injection,123 % of control [survivor count not shown]
same,T/C,dose: 0.5 mg/kg/injection,88 % of control [survivor count not shown]
same,T/C,dose: 1.0 mg/kg/injection,70 % of control [survivor count not shown]
same,T/C,dose: 2.0 mg/kg/injection,59 % of control [survivor count not shown]
